# Measured values published in article PMC5891081.
# Amino acid sequences for entries named in this document (tags omitted). A change or cut given only in a name is not applied to a line headed by its entry.
# UniProt P43351: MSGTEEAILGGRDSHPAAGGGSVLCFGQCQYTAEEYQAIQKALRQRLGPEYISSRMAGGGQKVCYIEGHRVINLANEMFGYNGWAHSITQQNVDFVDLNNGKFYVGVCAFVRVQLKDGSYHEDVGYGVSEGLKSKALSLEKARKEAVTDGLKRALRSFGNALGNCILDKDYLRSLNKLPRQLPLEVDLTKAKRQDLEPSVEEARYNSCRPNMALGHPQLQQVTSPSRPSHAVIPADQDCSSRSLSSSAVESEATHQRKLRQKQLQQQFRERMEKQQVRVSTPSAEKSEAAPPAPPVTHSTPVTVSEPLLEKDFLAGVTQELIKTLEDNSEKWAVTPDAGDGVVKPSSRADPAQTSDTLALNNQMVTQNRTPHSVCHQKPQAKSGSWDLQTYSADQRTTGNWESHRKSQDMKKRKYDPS
# Construct, isoform or probe ends are uncertain for at least one entry.
# Target: RAD52 11xR (Homo sapiens) (UniProt P43351)
# Assay: EMSA
# Settings: 10 uM nucleotides DNA, ssDNA binding similar to wild type; 16 uL reactions, Cy5-50-mer 10 uM in nucleotides; 5X buffer contains 0.1 M HEPES-NaOH pH 7.5 (20 mM final if 1X); remaining components; recombinant protein; protein details: C-terminal His6; label: 5'-Cy5; single-stranded DNA
sequence,measurement,value
TCGCCATCAACTAACGATTCTGTCAAAAACTGACGCGTTGGATGAGGAGA [FX174-50-1 (oligo 1)],binding result,binds
